From article PMC6451337, “The Toxoplasma gondii dense granule protein TgGRA3 interacts with host Golgi and dysregulates anterograde transport” (Biology Open, 2019)
No constants are given. Whether binding was seen depends on the method and setting. In cells and extracts the contact can be indirect. For some of these results: Binding calls can cover weak binding; strength is not graded here. For some of these results: Tags and fused reporters may be left off the sequences shown.

T1: GST-GRA3_(43-161) (Toxoplasma gondii) (UniProt B6KEU8)
T1 sequence: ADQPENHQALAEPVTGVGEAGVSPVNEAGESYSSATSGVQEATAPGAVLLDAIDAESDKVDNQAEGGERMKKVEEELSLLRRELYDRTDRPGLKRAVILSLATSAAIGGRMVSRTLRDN

B1: TgGRA3 (protein, UniProt B6KEU8 1-222)
chain: MDRTICPFFIQSFTMSTALKRLIPFLVPFVVFLVAAALGGLAADQPENHQALAEPVTGVGEAGVSPVNEAGESYSSATSGVQEATAPGAVLLDAIDAESDKVDNQAEGGERMKKVEEELSLLRRELYDRTDRPGLKRAVILSLATSAAIGGRMVSRTLRDNIPGYFVVINAILAAYYIRKVLTYRRRVMTKRQPFMSSVKNFFRRKPKDEGAGVDKASKKQT

Experiments:
[1] = target: T1, GST-GRA3_(43-161) (Toxoplasma gondii); experiment: pull-down; 60 μg of recombinant GST protein bound to glutathione-Sepharose beads, incubated with pre-cleared lysate of GRA23_3×HA parasites in buffer B for 1 h at room temperature; anti-HA immunoblot; only the target purified
[2] = target: TgGRA23_3×HA (Toxoplasma gondii); experiment: co-IP; HFF cells infected for 24 h, low-speed pellet (parasites) and high-speed pellet (PVM) suspended in buffer B as inputs; immunoprecipitation of TgGRA23_3×HA, immunoblot for TgGRA3
[3] = target: TgGRA23_3×HA (Toxoplasma gondii); experiment: co-IP; lysate of 50×10^6 tachyzoites of the 3×HA knock-in strains in buffer B (10 mM HEPES pH 7.4, 1.5 mM MgCl2, 10 mM KCl, 0.5 mM DTT, 0.1 mM EDTA, 0.65% NP-40), anti-HA beads overnight at 4°C, immunoblot for TgGRA3
[4] = target: TgROP13_3×HA (Toxoplasma gondii); experiment: as above

| Molecule | binding [1] | binding [2] | binding [3] | binding [4] |
| --- | --- | --- | --- | --- |
| TgGRA23_3×HA (Toxoplasma gondii) | binds | – | – | – |
| B1 | – | binds | binds | no binding |
